{"source": "patent US20240269094A1", "about": "“Treatment of canine dermatitis and skin irritation” (priority 2023, published 2024)", "tested_on": "canine dermatitis, scratching and licking", "experiment": "Topical treatment of canine skin irritation (case studies)", "type": "in vivo, dog", "conditions": "Study 2, oral liquid for one week", "text": "A six-year-old long-haired Dachshund, over eight months, developed an inflamed area on the belly and lower right groin where it frequently licked and scratched. Upon examination, the site was red and swollen (FIG. 9). A visit to the veterinarian ruled out fleas and mites or fungal and bacteria growth. The veterinarian called it a non-specific allergy and recommended cetirizine hydrochloride liquid compounded for dogs. […] The Applicant gave the dog's owner an airless pump dispenser containing 8% wt/vol of FEMA 4557 dispersed in 4 mg/ml of carbapol 980, formulated with 1% ethanol and 1% menthol, and instructed him to apply the gel to the skin of the dog's belly and groin. […] Treatment continued for one week, after which the skin appeared utterly normal. The inflammation and scratching have not come back.\nA twelve-year-old West Highland Terrier had periodic episodes of seasonal skin allergy. She would scratch until the site (groin and hindquarters) lost its fur and was bare down to the skin. A visit to the vet concluded that fleas, mites, or pyoderma were not causing the skin irritation, but the condition may be due to fungus. […] The owner of the dog, who had access to a pharmacy, applied nystatin ointment and a potent skin steroid cream containing […]. […]", "note": "Counter-ions that a name gives are not always drawn.", "data": [{"compound": "O=C(O)COCCN1CCN(C(c2ccccc2)c2ccc(Cl)cc2)CC1", "note": "(stereo not shown) [cetirizine, cetirizine hydrochloride]", "values": [{"measurement": "effect on red skin and licking", "result": "did not affect the red skin or the licking"}]}]}
